Data reported in patent US9751833B2, “Antimicrobial biguanide metal complexes” (Smith & Nephew PLC, priority 2005, dated 2017).
Some of these results come from one statement about several compounds together.

Tested on: Staphylococcus aureus NCTC 10788
Assay: Zone of inhibition, seeded Mueller-Hinton agar plug-hole assay
Type: cell-based
Conditions: summary of the zone of inhibition test of Example 8, both organisms (S. aureus and P. aeruginosa)
Method: Pseudomonas aeruginosa NCIMB 8626 and Staphylococcus aureus NCTC 10788 were harvested. Serial 1:10 dilutions were performed to give a final concentration of 10^8 bacteria/ml. Further dilutions were made for an inoculum count, down to […], with the number of bacteria/ml determined using the pour plate method.
Two large assay plates were then set up and 140 ml of Mueller-Hinton agar was added evenly to the large assay plates and allowed to dry (15 minutes). A further 140 ml of agar was seeded with the corresponding test organism and poured over the previous agar layer. Once the agar had set (15 minutes), the plate was dried at 37° C. for 30 minutes with the lid removed. 8 mm plugs were removed from the plate by biopsy punch.
In triplicate, 10 mg of the compounds prepared in Examples 1-3 were placed onto each plug hole followed by 200 ul sterile water. The plates were then sealed and incubated at 37° C. for 24 hours. The size of the microbial, including bacterial, zone cleared was measured using a Vernier calliper gauge, triplicates were averaged: […]

## Silver(III) Chlorhexidine (1,1′-hexamethylenebis[5-(p-chlorophenyl)biguanide] Complex [Example 1]
  Antimicrobial behaviour (summary in words): significant antimicrobial behaviour
